Results from the supplement of paper PMC11006884.
The entries are a selection whose mix differs from that of the whole data set. This is a noisy data set.

By UniProt entry, the sequences of proteins in these tests, tags left out. Where a name states a change or a piece, a line headed by the entry shows the natural chain unless it says otherwise.
UniProt Q8NI27: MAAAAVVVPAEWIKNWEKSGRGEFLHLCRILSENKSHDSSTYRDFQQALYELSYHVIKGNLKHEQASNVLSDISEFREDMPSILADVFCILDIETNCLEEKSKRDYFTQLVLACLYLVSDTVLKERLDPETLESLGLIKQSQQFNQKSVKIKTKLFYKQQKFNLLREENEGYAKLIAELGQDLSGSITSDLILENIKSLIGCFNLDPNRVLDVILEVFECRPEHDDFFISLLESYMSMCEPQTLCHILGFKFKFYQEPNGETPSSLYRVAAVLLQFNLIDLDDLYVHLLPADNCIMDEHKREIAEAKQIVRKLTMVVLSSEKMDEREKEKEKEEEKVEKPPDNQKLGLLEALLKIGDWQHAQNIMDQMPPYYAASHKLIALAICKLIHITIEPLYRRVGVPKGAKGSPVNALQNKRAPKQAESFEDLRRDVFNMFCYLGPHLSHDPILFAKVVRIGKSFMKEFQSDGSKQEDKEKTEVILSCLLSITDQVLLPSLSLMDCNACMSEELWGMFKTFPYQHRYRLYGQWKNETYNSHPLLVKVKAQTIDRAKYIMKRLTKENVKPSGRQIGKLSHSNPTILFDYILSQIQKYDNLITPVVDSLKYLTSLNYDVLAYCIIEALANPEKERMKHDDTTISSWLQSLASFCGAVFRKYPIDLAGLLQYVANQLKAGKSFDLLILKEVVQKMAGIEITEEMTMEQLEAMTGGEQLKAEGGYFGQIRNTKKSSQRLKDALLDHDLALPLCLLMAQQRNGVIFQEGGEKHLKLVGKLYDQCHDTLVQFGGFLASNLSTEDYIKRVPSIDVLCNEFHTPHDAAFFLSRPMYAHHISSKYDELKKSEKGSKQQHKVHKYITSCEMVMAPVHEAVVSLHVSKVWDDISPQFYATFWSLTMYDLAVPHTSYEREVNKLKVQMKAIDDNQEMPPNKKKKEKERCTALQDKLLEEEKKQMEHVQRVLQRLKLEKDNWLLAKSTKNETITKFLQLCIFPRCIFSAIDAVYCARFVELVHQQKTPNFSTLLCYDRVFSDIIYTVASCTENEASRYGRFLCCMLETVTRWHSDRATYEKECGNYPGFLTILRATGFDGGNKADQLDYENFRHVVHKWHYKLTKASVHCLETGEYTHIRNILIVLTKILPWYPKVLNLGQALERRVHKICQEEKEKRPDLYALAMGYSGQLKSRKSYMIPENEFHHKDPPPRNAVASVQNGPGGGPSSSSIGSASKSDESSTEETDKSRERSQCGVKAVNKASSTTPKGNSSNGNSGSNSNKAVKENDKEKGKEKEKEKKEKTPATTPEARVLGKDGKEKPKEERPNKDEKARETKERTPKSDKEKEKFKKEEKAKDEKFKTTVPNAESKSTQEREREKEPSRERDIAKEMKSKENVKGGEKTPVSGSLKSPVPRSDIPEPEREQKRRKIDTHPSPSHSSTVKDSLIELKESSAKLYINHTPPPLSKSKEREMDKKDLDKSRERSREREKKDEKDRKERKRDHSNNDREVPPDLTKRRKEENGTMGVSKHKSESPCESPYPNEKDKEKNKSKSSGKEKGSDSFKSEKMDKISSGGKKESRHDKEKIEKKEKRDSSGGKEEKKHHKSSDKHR
UniProt Q8TEU7: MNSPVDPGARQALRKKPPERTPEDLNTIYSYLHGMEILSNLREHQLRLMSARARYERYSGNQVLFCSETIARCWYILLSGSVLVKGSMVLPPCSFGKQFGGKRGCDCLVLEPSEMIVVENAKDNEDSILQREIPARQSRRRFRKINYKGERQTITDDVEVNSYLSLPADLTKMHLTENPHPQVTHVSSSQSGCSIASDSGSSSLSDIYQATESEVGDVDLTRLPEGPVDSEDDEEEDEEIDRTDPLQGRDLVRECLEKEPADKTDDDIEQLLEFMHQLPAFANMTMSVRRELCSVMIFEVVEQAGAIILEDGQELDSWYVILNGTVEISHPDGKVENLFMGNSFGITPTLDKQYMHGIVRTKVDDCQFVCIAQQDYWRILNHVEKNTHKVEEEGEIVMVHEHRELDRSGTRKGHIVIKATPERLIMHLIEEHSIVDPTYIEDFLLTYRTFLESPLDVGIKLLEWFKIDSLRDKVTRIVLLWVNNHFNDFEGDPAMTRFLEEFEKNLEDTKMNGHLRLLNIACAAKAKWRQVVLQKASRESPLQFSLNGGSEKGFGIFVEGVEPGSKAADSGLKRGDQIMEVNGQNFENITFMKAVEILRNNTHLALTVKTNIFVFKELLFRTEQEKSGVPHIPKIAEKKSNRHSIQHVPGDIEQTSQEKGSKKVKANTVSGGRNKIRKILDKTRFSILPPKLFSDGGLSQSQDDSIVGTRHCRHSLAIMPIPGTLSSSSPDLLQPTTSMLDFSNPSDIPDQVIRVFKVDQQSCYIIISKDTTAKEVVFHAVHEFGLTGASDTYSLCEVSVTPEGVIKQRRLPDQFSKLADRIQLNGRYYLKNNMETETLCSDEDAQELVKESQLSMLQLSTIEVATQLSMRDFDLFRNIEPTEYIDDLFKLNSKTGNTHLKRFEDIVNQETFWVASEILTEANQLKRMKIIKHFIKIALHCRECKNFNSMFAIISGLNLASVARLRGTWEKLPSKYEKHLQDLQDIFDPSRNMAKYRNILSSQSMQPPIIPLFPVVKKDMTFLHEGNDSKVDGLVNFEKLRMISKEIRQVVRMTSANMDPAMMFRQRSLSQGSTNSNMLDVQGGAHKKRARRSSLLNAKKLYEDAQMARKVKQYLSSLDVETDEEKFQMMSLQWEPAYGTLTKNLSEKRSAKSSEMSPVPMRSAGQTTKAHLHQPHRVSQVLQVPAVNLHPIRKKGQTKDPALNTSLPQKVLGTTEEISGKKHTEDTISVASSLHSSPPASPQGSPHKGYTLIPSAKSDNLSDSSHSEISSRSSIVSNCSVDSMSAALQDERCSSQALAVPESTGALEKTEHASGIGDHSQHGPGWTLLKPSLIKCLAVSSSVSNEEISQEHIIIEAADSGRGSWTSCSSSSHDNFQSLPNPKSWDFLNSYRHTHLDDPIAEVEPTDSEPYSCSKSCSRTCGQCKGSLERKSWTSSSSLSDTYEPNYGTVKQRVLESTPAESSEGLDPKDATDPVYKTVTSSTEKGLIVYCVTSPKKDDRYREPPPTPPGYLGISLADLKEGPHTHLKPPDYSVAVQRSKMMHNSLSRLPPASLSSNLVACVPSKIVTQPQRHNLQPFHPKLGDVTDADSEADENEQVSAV
UniProt Q8N335: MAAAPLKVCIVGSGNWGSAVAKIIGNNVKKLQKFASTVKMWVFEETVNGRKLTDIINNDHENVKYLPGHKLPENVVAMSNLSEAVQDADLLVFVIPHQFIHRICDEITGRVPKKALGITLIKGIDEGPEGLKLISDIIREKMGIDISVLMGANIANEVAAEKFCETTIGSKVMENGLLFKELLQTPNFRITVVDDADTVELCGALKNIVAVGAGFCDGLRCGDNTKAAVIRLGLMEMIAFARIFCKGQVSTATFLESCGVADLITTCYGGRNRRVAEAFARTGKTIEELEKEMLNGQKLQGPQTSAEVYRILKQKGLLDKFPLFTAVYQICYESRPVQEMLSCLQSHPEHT
UniProt Q8NC60: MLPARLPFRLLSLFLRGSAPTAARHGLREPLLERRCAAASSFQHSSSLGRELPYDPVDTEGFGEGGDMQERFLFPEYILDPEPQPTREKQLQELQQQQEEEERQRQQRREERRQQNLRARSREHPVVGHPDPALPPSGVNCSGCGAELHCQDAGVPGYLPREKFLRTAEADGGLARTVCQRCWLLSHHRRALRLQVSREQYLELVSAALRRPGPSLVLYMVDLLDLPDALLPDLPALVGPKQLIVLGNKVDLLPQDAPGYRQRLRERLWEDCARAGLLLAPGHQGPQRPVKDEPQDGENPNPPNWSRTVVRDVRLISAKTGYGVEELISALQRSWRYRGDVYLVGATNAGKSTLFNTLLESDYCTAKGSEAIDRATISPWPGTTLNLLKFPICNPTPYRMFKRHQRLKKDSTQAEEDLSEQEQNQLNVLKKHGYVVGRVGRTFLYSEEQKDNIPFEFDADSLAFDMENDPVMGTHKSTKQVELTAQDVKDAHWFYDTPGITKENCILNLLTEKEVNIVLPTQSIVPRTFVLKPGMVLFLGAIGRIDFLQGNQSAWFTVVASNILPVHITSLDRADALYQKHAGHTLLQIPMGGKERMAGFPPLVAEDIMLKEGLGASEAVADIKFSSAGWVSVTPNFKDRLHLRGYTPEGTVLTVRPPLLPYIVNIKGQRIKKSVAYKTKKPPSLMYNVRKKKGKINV
UniProt Q8NFQ8: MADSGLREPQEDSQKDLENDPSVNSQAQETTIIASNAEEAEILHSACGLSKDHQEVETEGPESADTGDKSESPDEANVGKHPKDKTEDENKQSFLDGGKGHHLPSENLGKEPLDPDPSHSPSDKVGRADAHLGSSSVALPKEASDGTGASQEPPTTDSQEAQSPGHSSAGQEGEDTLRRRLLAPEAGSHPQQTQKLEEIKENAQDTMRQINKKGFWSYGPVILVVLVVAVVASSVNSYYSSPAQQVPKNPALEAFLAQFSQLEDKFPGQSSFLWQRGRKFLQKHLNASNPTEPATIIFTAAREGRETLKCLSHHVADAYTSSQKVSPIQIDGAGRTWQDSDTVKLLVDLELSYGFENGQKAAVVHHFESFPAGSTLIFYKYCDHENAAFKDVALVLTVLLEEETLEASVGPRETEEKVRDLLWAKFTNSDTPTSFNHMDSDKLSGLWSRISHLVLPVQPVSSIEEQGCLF
UniProt Q8TCU6, whole entry: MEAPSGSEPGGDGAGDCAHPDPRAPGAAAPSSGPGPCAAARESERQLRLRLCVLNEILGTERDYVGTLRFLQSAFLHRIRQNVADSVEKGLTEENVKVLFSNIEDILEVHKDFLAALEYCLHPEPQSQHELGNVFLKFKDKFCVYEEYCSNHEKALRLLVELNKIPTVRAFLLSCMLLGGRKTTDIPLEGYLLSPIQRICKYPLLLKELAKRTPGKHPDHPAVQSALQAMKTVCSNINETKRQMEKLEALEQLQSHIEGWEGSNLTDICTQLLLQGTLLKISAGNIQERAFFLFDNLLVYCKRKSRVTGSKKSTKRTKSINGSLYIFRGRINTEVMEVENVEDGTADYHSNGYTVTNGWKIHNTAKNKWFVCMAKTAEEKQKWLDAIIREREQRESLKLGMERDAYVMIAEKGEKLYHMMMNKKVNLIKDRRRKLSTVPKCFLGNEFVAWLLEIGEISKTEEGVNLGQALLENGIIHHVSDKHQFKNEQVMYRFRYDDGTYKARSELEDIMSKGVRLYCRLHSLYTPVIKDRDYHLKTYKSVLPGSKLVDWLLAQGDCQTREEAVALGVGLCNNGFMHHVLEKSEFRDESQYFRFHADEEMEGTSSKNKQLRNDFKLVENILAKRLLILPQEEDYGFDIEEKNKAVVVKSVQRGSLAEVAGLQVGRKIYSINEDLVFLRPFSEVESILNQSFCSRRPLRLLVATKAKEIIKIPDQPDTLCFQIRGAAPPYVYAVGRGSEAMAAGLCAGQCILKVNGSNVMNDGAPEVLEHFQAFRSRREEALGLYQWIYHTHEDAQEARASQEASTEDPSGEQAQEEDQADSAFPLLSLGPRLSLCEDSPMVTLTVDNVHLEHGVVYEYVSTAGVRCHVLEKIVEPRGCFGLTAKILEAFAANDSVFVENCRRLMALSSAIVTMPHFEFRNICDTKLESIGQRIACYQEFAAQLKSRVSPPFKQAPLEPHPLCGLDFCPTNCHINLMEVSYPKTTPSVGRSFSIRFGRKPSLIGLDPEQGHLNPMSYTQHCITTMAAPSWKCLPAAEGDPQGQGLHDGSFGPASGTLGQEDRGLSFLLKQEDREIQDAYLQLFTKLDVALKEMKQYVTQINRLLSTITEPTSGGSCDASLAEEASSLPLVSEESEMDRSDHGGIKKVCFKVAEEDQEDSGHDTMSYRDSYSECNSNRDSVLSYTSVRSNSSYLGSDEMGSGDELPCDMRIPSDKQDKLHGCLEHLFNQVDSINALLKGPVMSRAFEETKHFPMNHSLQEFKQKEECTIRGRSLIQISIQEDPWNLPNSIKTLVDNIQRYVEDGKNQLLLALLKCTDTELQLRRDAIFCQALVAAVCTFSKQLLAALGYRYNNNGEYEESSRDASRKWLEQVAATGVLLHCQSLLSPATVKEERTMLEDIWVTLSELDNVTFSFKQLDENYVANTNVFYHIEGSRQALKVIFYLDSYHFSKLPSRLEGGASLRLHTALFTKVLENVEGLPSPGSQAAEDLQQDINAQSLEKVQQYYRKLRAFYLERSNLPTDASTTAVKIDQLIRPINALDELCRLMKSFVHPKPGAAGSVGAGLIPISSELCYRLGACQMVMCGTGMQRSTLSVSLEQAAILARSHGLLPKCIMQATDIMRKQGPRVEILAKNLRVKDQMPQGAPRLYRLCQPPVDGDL

compound: COC(=O)/C=C/c1ccccc1 [methyl cinnamate]; assay: log2 ratio of iodoacetamide-alkyne labeling of the cysteine site, DMSO over compound (competition); higher = stronger covalent engagement of the cysteine by the compound, active = 1 or more; details: 500 µM; treatment time 1 h; system: HEK293T cell lysate
Procedure, shortened: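 HEK293T lysate (2 mg/mL) was incubated with electrophile (500 µM) or vehicle for 1 h at ambient temperature and then with iodoacetamide alkyne for 1 h. Labelled proteins were clicked to sCIP-TMT reagents, pooled, digested, enriched on streptavidin and measured by Orbitrap Eclipse LC-MS/MS with FAIMS, with FragPipe quantification. The per-cysteine log2 competition ratio is mean control-channel reporter intensity over mean compound-channel reporter intensity. Across three replicates with duplicate channels, cysteines quantified in only one replicate were excluded.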

log2 ratio of iodoacetamide-alkyne labeling, inactive:
UniProt Q8TDN6_C52 0.473, THOC2 C773 (UniProt Q8NI27) -0.27, UniProt Q8WYQ9_C362 0.191, RAPGEF6 C1293 (UniProt Q8TEU7) 0.0929, GPD1L C9 (UniProt Q8N335) 0.273, FBXO30 C317 (UniProt Q8TB52) 0.443, PPHLN1 C446 (UniProt Q8NEY8) 0.0375, UniProt Q8NC60_C364 0.0261, NECAP1 C162 (UniProt Q8NC96) 0.527, TOR1AIP2 C468 (UniProt Q8NFQ8) 0.0962, PREX1 C52 (UniProt Q8TCU6) -0.127, IPO4 C782 (UniProt Q8TEX9) 0.175, UniProt Q8N163_C238 0.0185, SYNE2 C5348 (UniProt Q8WXH0) 0.222, UniProt Q8WZA9_C504 -0.0433, PPHLN1 C309 (UniProt Q8NEY8) 0.2, UniProt Q8N0Z3_C818 0.356, TRUB1 C249 (UniProt Q8WWH5) -0.0821, RBM15B C859 (UniProt Q8NDT2) -0.173, UniProt Q8N0X7_C562 0.135, RDH10 C272 (UniProt Q8IZV5) 0.117, DDX51 C238 (UniProt Q8N8A6) -0.00808
